# Small-molecule microarray binding calls

Calls as published in the ROBIN set (doi:10.1002/anie.202211358).

Oligonucleotides screened, 5′ to 3′:
SAM-II: SAM-II riboswitch RNA pseudoknot, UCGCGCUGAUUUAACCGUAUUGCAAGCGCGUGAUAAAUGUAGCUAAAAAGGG. About 200 hits among about 21,000 compounds.
TPP: TPP riboswitch RNA three-way junction, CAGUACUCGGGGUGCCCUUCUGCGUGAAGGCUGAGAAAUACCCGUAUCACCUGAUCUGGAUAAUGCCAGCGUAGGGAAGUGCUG. About 160 hits among about 24,000 compounds.
PreQ1: PreQ1 riboswitch RNA pseudoknot, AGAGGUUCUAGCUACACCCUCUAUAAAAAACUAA. From B. subtilis. About 170 hits among about 24,000 compounds.

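The test is a small-molecule microarray: each compound is printed twice on a reactive slide, and binding shows as fluorescence of the labelled oligonucleotide after washing. For the PreQ1, TPP and SAM-II riboswitches the laboratory earlier reported (doi:10.1038/s41467-019-09493-3) 1 µM RNA, 2 h, and a rule that included a mean Z-score above 3 (spot signal-to-noise against the whole library), a score well above that on a control array, and duplicate spots agreeing (coefficient of variation under 100). The data file gives only the calls; its cut-offs may differ, and compounds hitting several targets are kept. A missing hit is not proof of no binding, and a hit is not a measured affinity.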
A compound is marked active if it was called a hit and inactive if it was screened but was not.
The compounds are a random part of those screened.
A dash means that no call is listed here.

compound | SAM-II | TPP | PreQ1
c1ccc(CNc2ncnc3sc4c(c23)CCCC4)cc1 | inactive | inactive | inactive
Nc1cc(O)nc(CCNC(=O)C2CCCN(C3CCCC3)C2)n1 (stereo not shown) | inactive | inactive | inactive
CCOC(=O)c1c(-c2cccc(OC)c2)n[nH]c1N | inactive | inactive | inactive
CN(C(=O)C(O)c1cccc(Cl)c1)C1Cc2ccccc2C1 (stereo not shown) | inactive | inactive | inactive
CCCCOCC(O)Cn1c2ccccc2c2ccccc21 (stereo not shown) | inactive | inactive | inactive
Nc1cc(N2CC[C@@H](N3CCN(c4ccccc4F)CC3)[C@H](O)C2)ncn1 | inactive | inactive | inactive
Cc1[nH]nc(CCC(=O)N2CCC3(CC2)Nc2ccccc2NC3=O)c1C | inactive | inactive | inactive
CCCc1nc2ccccc2n1CC(O)COc1ccc(C(=O)OC)cc1 (stereo not shown) | inactive | inactive | inactive
Cn1c(=O)c2c(nc(NCCO)n2Cc2cccc3ccccc23)n(C)c1=O | inactive | inactive | inactive
CCOc1ccc(CNc2nc3nc(C)c(Cl)c(C)n3n2)cc1 | - | inactive | inactive
COC(=O)c1cn(C2CC(C)(C)NC(C)(C)C2)cc(C(=O)OC)c1=O | inactive | inactive | inactive
COC(=O)C(C)Nc1cc(C)nc2nc(-c3ccccc3)nn12 (stereo not shown) | - | inactive | inactive
CC(=O)c1c(C)nc2nonc2c1N | inactive | inactive | inactive
CC(C)(C)OC(=O)CN(Cc1ccc(Cl)cc1)Cc1ccc([N+](=O)[O-])s1 | inactive | inactive | inactive
CC(=O)Oc1ccc(C(c2ccc(OC(C)=O)cc2)c2ccccn2)cc1 | inactive | inactive | inactive
C=C(C)Cn1c(SCCO)nc2c(c1=O)C1(CCCCC1)Cc1ccccc1-2 | - | inactive | inactive
CCN1C(=O)C2(C(C#N)=C(N)Oc3[nH]nc(-c4ccccc4)c32)c2ccccc21 (stereo not shown) | inactive | inactive | inactive
C=CCn1cc(CNCC(=O)Nc2cc(C)ccc2OC)c(C)n1 | inactive | inactive | inactive
Nc1nccc(N2CCC(c3nnc(Cn4cncn4)n3C3CC3)CC2)n1 | inactive | inactive | inactive
Cc1ccc(OCC(O)CN2CC(C)CC(C)C2)c(C)c1 (stereo not shown) | inactive | inactive | inactive
Cc1cccc(C(C)C)c1NC(=O)CNC(C)c1cn2ncsc2n1 (stereo not shown) | inactive | inactive | inactive
Cc1sc2c(c1C)CN(CCO)CN2C(=O)c1ccccc1 | inactive | inactive | inactive
CNC(=O)c1cc2c(s1)CCN(C(=O)C1CNCCO1)C2 (stereo not shown) | inactive | inactive | inactive
N#CC1=C(N)OC2=C(C(=O)CCC2)C1c1ccc(C#N)cc1 (stereo not shown) | inactive | inactive | inactive
CCCOc1ccc(-c2cccc(CN3CCOCC3)c2)cc1CO | inactive | inactive | inactive
O=C(O)[C@]12CNC[C@H]1CN(c1cccc(Cl)n1)C2 | inactive | inactive | inactive
Cc1ccc(N2CCN(C(=O)[C@@H](C)O)CC2=O)cc1 | inactive | inactive | inactive
COc1nccc(N2CCN(C(=O)C3CC3)CC(O)C2)c1C#N (stereo not shown) | inactive | inactive | inactive
c1cc2c(cc1[C@H]1OC[C@H]3[C@H]1CO[C@H]3c1ccc3c(c1)OCO3)OCO2 | inactive | inactive | inactive
Cc1cccc(Nc2sc(C(=O)c3cc4cc(Cl)ccc4o3)c(N)c2C#N)c1 | inactive | inactive | inactive
O=C1NC2(CCNCC2)C(=O)N1CCCc1cnoc1 | inactive | inactive | inactive
COc1cc(C2c3c(-c4cc(C)ccc4O)n[nH]c3C(=O)N2CCCO)ccc1O (stereo not shown) | - | inactive | inactive
Cc1cc(-c2ccc(CC(=O)Nc3ccc(-c4cccnc4)cc3)cc2)ccn1 | inactive | inactive | inactive
O=[N+]([O-])c1ccc(S(=O)(=O)N(CCO)C2CCCCC2)cc1 | inactive | inactive | inactive
CC1=C(c2ccccc2)S(=O)(=O)N=C1Nc1ccc(F)cc1C | - | inactive | inactive
Cc1nc(N2CCN(CCO)CC2)nc2c1C(=O)CC(c1cccc(Cl)c1)C2 (stereo not shown) | inactive | inactive | inactive
CCN(CC)c1ccc(C(O)c2nc3ccccc3n2CC)cc1 (stereo not shown) | inactive | inactive | inactive
O=C(CC1=CCCC1)N1CCN(Cc2ccc(CO)o2)CC(O)C1 (stereo not shown) | inactive | inactive | inactive
N#Cc1c(-c2ccc(C(N)=O)cc2)cc(-c2c[nH]c3ccccc23)nc1N | inactive | inactive | inactive
Cn1c(=O)c2c(c3ccccc31)OC(N)=C(C#N)C2c1ccc(Cl)cc1 (stereo not shown) | inactive | inactive | inactive
Cc1ccc(Nc2ncnc3c2nc2n3CCCCC2)c(Br)c1 | - | inactive | inactive
Fc1ccccc1-c1ccc(CNCc2cccs2)o1 | - | inactive | inactive
COc1cc(C)c(Sc2cnc(NC(=O)c3ccc(CNC(C)C(C)C)cc3)s2)cc1C(=O)N1CCN(C(C)=O)CC1 (stereo not shown) | inactive | inactive | inactive
CC(C)Cc1nc(NC2CCCCC2)c(C#N)c2c1COC(C)(C)C2 | inactive | inactive | inactive
CS(=O)(=O)OCCCCOS(C)(=O)=O | inactive | inactive | inactive
CC1(C)CC(CCNCc2cccnc2)(c2cccc(C(F)(F)F)c2)CCO1 (stereo not shown) | - | inactive | inactive
NC1(C(=O)N2C[C@@H](c3cccc(F)c3F)[C@@H]3[C@H]2C2CCN3CC2)CCC1 | inactive | inactive | inactive
CN(C)C(=O)CSc1nc(N)cc(N2CCN(C)C(c3ccccc3)C2)n1 (stereo not shown) | inactive | inactive | inactive
CC(C)c1cnn2c(NCc3ccccc3)cc(NCCCCCCN)nc12 | inactive | inactive | inactive
O=C(N[C@@H]1CCN(C(=O)c2ccc(Cl)s2)C[C@H]1O)c1ccncc1 | inactive | inactive | inactive
COc1cc(C)c(CN2CCC(O)CC2)cc1C.O=C(O)C(=O)O | inactive | inactive | inactive

Once more, the final 3:

| compound | SAM-II | TPP | PreQ1 |
|---|---|---|---|
| `CC(C)c1cnn2c(NCc3ccccc3)cc(NCCCCCCN)nc12` | inactive | inactive | inactive |
| `O=C(N[C@@H]1CCN(C(=O)c2ccc(Cl)s2)C[C@H]1O)c1ccncc1` | inactive | inactive | inactive |
| `COc1cc(C)c(CN2CCC(O)CC2)cc1C.O=C(O)C(=O)O` | inactive | inactive | inactive |